Taken from: PubChem BioAssay AID1259254 (NCATS, 2017)

Screen: 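Genome-wide screen for genes that prevent DNA re-replication in cancer cells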 (primary screen)
Cell system: human HCT116 colorectal cancer cells
Reagents: single siRNA against human genes
Duration: 3 days
Detection: 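Imaged Hoechst DNA stain sorts each cell into a cycle phase by DNA amount; per plate, G2 fraction set to 0% for non-targeting and 100% for GMNN siRNA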
Direction: G2 robust z-score: higher = more G2 cells, more excess DNA replication
Active means: 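Active siRNAs have a G2 robust z of 5 or more median absolute deviations over the median, which in these data means about 38% or higher of GMNN control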
The whole screen tested about 59,000 reagents; this is a random part of them. Over the whole deposit, about 1,550 (2.6%) got an active call. 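G2 share is only a proxy for re-replication; each gene was hit by three separate siRNAs, and active genes were retested.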 Unmarked entries are inactive. The numbers tell different reagents against one gene apart. Further read-outs or replicates are left out here. Not stated in the record: the amount of reagent.

With CDC7 (GeneID 8317) #1, what does the deposit list?
G2 robust z-score: 1.28

Which result is listed for CDC7 (GeneID 8317) #2?
G2 robust z-score: 0.0989

What did the screen give for CDC7 (GeneID 8317) #3?
G2 robust z-score: 3.28

With CT55P1 (GeneID 728470) #1, what was measured?
G2 robust z-score: 0.247

What did the screen give for CT55P1 (GeneID 728470) #2?
G2 robust z-score: 0.232

With CT55P1 (GeneID 728470) #3, what does the deposit list?
G2 robust z-score: -1.33

What is on record for ANKRD55 (GeneID 79722) #1?
G2 robust z-score: -0.373

For ANKRD55 (GeneID 79722) #2, what does the deposit list?
G2 robust z-score: -0.177

What did the screen give for ANKRD55 (GeneID 79722) #3?
G2 robust z-score: -1.01

How did the screen score SMIM30 (GeneID 401397) #1?
G2 robust z-score: -0.0864

How did the screen score SMIM30 (GeneID 401397) #2?
G2 robust z-score: -1.01

Which result is listed for SMIM30 (GeneID 401397) #3?
G2 robust z-score: 0.759

For PRSS33 (GeneID 260429) #1, how do the results read?
G2 robust z-score: 5.05 (active)

What did the screen give for PRSS33 (GeneID 260429) #2?
G2 robust z-score: 1.14

For PRSS33 (GeneID 260429) #3, what was measured?
G2 robust z-score: 0.647

With ZNF589 (GeneID 51385) #1, how do the results read?
G2 robust z-score: -0.21

What did the screen give for ZNF589 (GeneID 51385) #2?
G2 robust z-score: 0.127

How did the screen score ZNF589 (GeneID 51385) #3?
G2 robust z-score: -0.0981

2 consecutive records from above, quoted:
CT55P1 (GeneID 728470) #1 | G2 robust z-score = 0.247
CT55P1 (GeneID 728470) #2 | G2 robust z-score = 0.232
